Assay results as given in the supplement of paper PMC12823440, “Inhibitors supercharge kinase turnover through native proteolytic circuits” (Nature, 2025).
Structures can show the parent of a compound that is named as a salt. This is one part of the list. Hit calls seldom repeat between salt and free forms of one compound.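 In K562 cells expressing nanoluciferase-fused kinases, luminescence was recorded at 4 h intervals between 2 and 18 h, normalized as percent of control with DMSO at 100% and a positive control at 0%. A significant (2 sigma) signal drop marks a time point as decreased. The authors' rule for a hit is not shown and takes in more than the number of time points.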

Protein sequences, listed by entry. Tags and fused reporters are not part of them. Lines headed by an entry give the natural chain unless they say otherwise; changes in a name come on top.
UniProt O75460: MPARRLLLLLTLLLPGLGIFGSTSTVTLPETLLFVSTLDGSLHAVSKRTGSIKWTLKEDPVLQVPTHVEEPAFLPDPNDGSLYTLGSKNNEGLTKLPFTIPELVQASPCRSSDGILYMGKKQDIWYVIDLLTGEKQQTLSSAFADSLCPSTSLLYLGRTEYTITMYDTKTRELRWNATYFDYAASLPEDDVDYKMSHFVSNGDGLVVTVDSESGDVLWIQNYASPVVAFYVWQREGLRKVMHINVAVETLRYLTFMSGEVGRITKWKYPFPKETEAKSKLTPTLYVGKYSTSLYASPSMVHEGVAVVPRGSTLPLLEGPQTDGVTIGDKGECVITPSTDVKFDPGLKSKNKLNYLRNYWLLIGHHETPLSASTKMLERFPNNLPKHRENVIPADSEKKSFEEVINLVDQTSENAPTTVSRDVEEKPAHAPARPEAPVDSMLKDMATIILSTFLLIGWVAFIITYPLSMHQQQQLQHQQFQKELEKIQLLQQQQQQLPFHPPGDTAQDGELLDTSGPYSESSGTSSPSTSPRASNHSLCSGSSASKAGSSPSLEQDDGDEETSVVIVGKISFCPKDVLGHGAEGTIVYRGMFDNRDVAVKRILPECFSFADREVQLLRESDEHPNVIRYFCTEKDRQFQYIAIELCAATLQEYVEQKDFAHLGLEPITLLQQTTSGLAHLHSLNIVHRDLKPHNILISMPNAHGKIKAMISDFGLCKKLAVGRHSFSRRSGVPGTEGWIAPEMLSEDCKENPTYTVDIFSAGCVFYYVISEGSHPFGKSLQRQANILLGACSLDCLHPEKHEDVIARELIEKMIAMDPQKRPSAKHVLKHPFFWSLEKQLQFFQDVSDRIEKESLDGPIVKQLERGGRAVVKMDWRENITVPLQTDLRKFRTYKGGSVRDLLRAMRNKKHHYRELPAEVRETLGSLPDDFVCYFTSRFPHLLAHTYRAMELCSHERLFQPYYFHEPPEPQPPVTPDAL
UniProt P11362, whole entry, looked up: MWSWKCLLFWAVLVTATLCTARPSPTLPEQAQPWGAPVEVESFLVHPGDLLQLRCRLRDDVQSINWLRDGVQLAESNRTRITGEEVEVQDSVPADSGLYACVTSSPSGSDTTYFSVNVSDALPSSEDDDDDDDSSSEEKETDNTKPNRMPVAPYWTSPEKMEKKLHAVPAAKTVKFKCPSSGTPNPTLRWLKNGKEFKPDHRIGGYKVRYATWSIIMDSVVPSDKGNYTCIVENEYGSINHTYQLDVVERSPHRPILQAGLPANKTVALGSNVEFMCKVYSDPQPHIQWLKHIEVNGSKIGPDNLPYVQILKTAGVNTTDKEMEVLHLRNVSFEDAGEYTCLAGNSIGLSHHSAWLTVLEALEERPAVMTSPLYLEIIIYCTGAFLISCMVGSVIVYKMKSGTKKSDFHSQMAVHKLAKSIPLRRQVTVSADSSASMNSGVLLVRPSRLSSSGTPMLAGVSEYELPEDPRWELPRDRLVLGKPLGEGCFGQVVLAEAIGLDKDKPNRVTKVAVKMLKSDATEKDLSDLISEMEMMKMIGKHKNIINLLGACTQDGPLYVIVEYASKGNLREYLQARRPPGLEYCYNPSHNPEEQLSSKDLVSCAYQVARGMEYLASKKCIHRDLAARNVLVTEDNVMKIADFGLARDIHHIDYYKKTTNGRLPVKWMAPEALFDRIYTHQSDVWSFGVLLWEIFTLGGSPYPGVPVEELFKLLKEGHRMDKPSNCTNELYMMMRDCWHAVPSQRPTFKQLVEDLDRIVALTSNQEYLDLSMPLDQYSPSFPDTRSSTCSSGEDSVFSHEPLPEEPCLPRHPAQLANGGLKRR
UniProt P21802, whole entry, looked up: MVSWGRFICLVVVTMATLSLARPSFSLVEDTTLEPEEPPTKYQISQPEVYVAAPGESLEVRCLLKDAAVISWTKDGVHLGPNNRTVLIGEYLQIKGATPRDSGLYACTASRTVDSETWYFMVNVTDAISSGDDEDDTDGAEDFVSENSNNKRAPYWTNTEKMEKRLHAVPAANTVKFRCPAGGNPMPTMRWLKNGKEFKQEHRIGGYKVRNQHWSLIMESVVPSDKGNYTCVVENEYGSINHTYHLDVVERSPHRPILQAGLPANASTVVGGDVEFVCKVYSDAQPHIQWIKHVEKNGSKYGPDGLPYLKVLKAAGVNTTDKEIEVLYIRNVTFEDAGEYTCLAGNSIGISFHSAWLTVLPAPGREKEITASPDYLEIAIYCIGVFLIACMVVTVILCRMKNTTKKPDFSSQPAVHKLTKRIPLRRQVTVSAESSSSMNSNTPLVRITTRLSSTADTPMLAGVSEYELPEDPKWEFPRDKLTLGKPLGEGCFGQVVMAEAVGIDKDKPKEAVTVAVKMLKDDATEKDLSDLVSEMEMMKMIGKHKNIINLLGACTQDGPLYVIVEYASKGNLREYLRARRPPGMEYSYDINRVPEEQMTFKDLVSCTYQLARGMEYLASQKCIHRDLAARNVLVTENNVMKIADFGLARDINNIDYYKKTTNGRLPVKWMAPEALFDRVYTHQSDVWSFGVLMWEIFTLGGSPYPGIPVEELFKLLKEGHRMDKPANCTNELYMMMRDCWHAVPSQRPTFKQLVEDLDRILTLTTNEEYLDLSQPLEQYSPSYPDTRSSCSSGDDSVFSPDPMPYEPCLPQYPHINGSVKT
UniProt P36888, whole entry: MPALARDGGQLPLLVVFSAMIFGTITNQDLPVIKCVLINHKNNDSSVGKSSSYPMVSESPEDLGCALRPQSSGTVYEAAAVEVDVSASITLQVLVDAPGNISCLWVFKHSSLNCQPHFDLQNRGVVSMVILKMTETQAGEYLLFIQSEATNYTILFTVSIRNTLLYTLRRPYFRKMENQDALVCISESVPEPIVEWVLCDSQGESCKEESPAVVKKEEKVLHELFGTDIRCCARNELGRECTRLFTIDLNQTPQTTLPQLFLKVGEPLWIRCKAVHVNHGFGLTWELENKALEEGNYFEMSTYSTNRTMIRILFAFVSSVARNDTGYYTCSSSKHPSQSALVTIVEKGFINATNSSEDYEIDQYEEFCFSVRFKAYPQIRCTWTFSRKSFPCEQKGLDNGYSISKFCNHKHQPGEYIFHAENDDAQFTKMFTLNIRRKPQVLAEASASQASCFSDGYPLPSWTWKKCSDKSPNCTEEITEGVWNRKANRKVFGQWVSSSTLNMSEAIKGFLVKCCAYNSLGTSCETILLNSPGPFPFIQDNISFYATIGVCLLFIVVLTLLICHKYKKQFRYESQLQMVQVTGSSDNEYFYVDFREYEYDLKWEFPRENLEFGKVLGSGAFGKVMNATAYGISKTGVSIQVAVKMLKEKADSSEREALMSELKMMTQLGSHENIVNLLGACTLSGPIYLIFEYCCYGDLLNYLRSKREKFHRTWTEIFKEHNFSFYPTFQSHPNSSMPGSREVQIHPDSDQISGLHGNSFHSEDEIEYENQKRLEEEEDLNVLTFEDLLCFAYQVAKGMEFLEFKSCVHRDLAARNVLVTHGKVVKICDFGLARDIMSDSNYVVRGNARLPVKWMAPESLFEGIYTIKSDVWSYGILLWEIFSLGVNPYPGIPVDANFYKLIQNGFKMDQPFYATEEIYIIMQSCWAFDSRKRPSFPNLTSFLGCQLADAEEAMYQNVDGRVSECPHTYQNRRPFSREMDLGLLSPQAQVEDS
UniProt P06241, whole entry, looked up: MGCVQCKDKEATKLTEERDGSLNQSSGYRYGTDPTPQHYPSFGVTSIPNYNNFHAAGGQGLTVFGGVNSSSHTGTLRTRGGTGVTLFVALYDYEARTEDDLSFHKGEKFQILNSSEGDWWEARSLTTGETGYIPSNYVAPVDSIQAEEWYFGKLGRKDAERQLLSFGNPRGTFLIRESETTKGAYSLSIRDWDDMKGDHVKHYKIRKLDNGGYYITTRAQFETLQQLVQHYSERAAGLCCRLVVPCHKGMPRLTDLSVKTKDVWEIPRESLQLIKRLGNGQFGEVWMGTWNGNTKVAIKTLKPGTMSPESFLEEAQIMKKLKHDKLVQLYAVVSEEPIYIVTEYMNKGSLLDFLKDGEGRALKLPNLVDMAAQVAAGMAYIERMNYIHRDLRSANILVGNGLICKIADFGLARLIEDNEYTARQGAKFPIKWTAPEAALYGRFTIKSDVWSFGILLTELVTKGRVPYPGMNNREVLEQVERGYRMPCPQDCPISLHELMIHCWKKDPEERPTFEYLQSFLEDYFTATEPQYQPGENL
UniProt P49840: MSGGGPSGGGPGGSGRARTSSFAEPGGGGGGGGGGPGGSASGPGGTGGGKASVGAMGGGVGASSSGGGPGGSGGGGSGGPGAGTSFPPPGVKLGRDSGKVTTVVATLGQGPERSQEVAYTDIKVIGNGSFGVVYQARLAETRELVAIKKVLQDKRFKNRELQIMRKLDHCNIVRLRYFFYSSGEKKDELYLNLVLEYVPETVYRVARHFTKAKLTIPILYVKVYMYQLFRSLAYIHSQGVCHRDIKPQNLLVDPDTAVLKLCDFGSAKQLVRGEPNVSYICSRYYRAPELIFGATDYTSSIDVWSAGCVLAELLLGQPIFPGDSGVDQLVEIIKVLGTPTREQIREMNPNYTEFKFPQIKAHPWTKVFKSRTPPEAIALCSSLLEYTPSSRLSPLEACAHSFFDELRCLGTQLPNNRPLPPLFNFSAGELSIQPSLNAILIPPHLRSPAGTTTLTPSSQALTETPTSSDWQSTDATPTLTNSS
UniProt P14616: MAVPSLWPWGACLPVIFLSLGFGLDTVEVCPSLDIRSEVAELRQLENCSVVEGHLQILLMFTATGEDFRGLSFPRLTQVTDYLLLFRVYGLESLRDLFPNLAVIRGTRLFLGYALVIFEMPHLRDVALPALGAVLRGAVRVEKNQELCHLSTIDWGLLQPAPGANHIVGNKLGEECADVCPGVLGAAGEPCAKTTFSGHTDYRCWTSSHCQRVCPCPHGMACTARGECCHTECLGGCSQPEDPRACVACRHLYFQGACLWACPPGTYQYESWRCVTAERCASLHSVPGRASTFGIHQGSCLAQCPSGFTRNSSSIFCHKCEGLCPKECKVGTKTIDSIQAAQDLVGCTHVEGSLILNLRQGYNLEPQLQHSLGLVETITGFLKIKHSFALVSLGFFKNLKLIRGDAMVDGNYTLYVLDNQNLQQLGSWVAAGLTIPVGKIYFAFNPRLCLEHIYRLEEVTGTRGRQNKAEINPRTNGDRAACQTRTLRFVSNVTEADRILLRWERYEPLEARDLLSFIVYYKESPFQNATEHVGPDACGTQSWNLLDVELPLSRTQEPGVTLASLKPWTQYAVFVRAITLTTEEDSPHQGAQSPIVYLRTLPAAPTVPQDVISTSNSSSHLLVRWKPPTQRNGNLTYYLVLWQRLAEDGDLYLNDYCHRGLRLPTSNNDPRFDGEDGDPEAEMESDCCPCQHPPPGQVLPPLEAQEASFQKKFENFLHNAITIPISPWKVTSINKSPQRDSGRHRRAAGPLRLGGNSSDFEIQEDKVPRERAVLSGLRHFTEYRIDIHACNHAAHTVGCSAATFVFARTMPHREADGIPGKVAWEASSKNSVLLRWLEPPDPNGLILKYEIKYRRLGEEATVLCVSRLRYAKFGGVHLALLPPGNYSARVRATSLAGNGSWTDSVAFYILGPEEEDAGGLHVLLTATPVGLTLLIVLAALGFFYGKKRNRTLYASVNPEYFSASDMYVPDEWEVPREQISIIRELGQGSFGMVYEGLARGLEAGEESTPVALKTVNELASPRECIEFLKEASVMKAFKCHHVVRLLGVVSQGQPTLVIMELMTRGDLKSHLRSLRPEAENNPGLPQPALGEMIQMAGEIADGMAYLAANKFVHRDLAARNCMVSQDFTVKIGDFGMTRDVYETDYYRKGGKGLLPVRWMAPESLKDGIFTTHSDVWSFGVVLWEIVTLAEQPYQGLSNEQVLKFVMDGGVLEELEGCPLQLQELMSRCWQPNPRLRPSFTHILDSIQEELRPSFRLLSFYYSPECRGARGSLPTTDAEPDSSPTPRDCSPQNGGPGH

Legend:
Test in all cases: kinase-Nluc reporter destabilization hit call (1 = scored as downregulated) (binary); higher = compound decreases kinase abundance
Conditions in all cases: K562; 2-18 h
ERN1 = ERN1 (UniProt O75460)
FGFR1 = FGFR1 (UniProt P11362)
FGFR2 = FGFR2 (UniProt P21802)
FGFR3 = FGFR3 (UniProt P22607)
FGR = FGR (UniProt P09769)
FLT3 = FLT3 (UniProt P36888)
FYN = FYN (UniProt P06241)
GSK3A = GSK3A (UniProt P49840)
HER2 = HER2 (UniProt P04626)
INSRR = INSRR (UniProt P14616)

Compound	kinase-Nluc reporter destabilization hit call (ERN1)	kinase-Nluc reporter destabilization hit call (FGFR1)	kinase-Nluc reporter destabilization hit call (FGFR2)	kinase-Nluc reporter destabilization hit call (FGFR3)	kinase-Nluc reporter destabilization hit call (FGR)	kinase-Nluc reporter destabilization hit call (FLT3)	kinase-Nluc reporter destabilization hit call (FYN)	kinase-Nluc reporter destabilization hit call (GSK3A)	kinase-Nluc reporter destabilization hit call (HER2)	kinase-Nluc reporter destabilization hit call (INSRR)
CCc1c(C(=O)NNC(=O)C(O)c2cc(F)cc(F)c2)ccc(O)c1C (stereo not given) (10 µM)	inactive: 0	inactive: 0	inactive: 0	inactive: 0	inactive: 0	inactive: 0	inactive: 0	inactive: 0	inactive: 0	inactive: 0
CN(C)CCSSCCNC(=O)C1CCN(C(=O)CSc2ccc(Cl)cc2)CC1 (10 µM)	inactive: 0	inactive: 0	inactive: 0	inactive: 0	inactive: 0	inactive: 0	inactive: 0	inactive: 0	inactive: 0	inactive: 0
Cn1cnc2c(F)c(Nc3ccc(Br)cc3Cl)c(C(=O)NOCCO)cc21 [Selumetinib (sulfate)] (10 µM)	inactive: 0	inactive: 0	inactive: 0	inactive: 0	inactive: 0	inactive: 0	inactive: 0	inactive: 0	inactive: 0	inactive: 0
CCN1CCN(Cc2ccc(Nc3ncc(F)c(-c4cc(F)c5nc(C)n(C(C)C)c5c4)n3)nc2)CC1 [Abemaciclib] (2 µM)	inactive: 0	inactive: 0	inactive: 0	inactive: 0	inactive: 0	inactive: 0	inactive: 0	inactive: 0	inactive: 0	inactive: 0
CCS(=O)(=O)c1ncc(Cl)c(C(=O)N(Cc2ccc(Cl)cc2)Cc2ccco2)n1 (2.5 µM)	inactive: 0	inactive: 0	inactive: 0	inactive: 0	inactive: 0	inactive: 0	active: 1	inactive: 0	inactive: 0	inactive: 0
CCN1CCC(n2cc(CNc3cc(Cl)c4ncc(C#N)c(Nc5ccc(F)c(Cl)c5)c4c3)nn2)CC1 [Cot inhibitor-2] (2.5 µM)	inactive: 0	inactive: 0	inactive: 0	inactive: 0	inactive: 0	inactive: 0	inactive: 0	inactive: 0	inactive: 0	inactive: 0
C=CC(=O)Nc1cc(Nc2ncc(Cl)c(-c3c[nH]c4ccccc34)n2)c(OC)cc1N(C)CCN(C)C [Mutant EGFR inhibitor] (2.5 µM)	inactive: 0	inactive: 0	inactive: 0	inactive: 0	inactive: 0	inactive: 0	inactive: 0	inactive: 0	inactive: 0	inactive: 0
Oc1cc2c(cc1O)C(Cc1cccc3ccccc13)NCC2 (stereo not given) (10 µM)	inactive: 0	inactive: 0	inactive: 0	inactive: 0	inactive: 0	inactive: 0	inactive: 0	inactive: 0	inactive: 0	inactive: 0
C=CC(=O)Nc1cccc(Nc2nc(Nc3ccc(N4CCN(C(C)=O)CC4)cc3OC)ncc2C(F)(F)F)c1 [Rociletinib] (10 µM)	inactive: 0	inactive: 0	inactive: 0	inactive: 0	inactive: 0	inactive: 0	inactive: 0	inactive: 0	inactive: 0	inactive: 0
C=CC(=O)Nc1cccc(Nc2nc(Nc3ccc(N4CCN(C(C)=O)CC4)cc3OC)ncc2C(F)(F)F)c1 [Rociletinib hydrobromide] (10 µM)	inactive: 0	inactive: 0	inactive: 0	inactive: 0	inactive: 0	inactive: 0	inactive: 0	inactive: 0	inactive: 0	inactive: 0
c1cncc(CN2CCC(n3ncc4c(N5CCOCC5)nc(-c5ccc6[nH]ccc6c5)nc43)CC2)c1 (10 µM)	inactive: 0	active: 1	inactive: 0	inactive: 0	inactive: 0	inactive: 0	inactive: 0	inactive: 0	inactive: 0	inactive: 0
CC(=O)NC1CC(n2cnc(NC(=O)Cc3ccc4ccccc4c3)c2)C1 (stereo not given) (10 µM)	inactive: 0	inactive: 0	inactive: 0	inactive: 0	inactive: 0	inactive: 0	inactive: 0	inactive: 0	inactive: 0	inactive: 0
NS(=O)(=O)c1ccc(-n2nc(C(F)(F)F)cc2-c2ccc(Cl)cc2)cc1 (10 µM)	inactive: 0	inactive: 0	inactive: 0	inactive: 0	inactive: 0	inactive: 0	inactive: 0	inactive: 0	inactive: 0	inactive: 0
O=C1N[C@@H](Cc2c[nH]c3ccccc23)C(=O)N2CCC[C@@H]12 [Brevianamide F] (10 µM)	inactive: 0	inactive: 0	inactive: 0	inactive: 0	inactive: 0	inactive: 0	inactive: 0	inactive: 0	inactive: 0	inactive: 0
Cc1c(NC(=O)c2cccn(-c3ccc(F)cc3)c2=O)ccc(Oc2ccnc(NC(=O)C3CC3)c2)c1C (2 µM)	inactive: 0	inactive: 0	inactive: 0	inactive: 0	inactive: 0	inactive: 0	inactive: 0	inactive: 0	inactive: 0	inactive: 0
COc1ncc(Cl)cc1S(=O)(=O)Nc1ccc(F)c(C#Cc2cnc(N)nc2)c1F (2.5 µM)	inactive: 0	inactive: 0	inactive: 0	inactive: 0	inactive: 0	inactive: 0	inactive: 0	inactive: 0	inactive: 0	inactive: 0
O=C(O)CCC(=O)Nc1ccc(Br)cn1 [Bikinin] (10 µM)	inactive: 0	inactive: 0	inactive: 0	inactive: 0	inactive: 0	inactive: 0	inactive: 0	inactive: 0	inactive: 0	inactive: 0
COc1cccc(OC)c1C(=O)OCc1cc(O)ccc1O[C@@H]1O[C@H](CO)[C@@H](O)[C@H](O)[C@H]1O [Curculigoside] (10 µM)	inactive: 0	inactive: 0	inactive: 0	inactive: 0	inactive: 0	inactive: 0	inactive: 0	inactive: 0	inactive: 0	inactive: 0
FC(F)c1nc2ccccc2n1-c1nc(N2CCOCC2)nc(N2CCOCC2)n1 (2 µM)	inactive: 0	inactive: 0	inactive: 0	inactive: 0	inactive: 0	inactive: 0	inactive: 0	inactive: 0	inactive: 0	inactive: 0
N#Cc1c(C2CCNCC2)cc(-c2c(O)cccc2OCC2CC2)nc1N [ACHP (Hydrochloride)] (10 µM)	inactive: 0	inactive: 0	inactive: 0	inactive: 0	inactive: 0	inactive: 0	inactive: 0	inactive: 0	inactive: 0	inactive: 0
Cc1ccc2cc(-c3c(C)ccc(C(=O)c4c(-c5ccccc5)n(C)n(-c5ccccc5)c4=O)c3N)ccc2n1 (2.5 µM)	inactive: 0	inactive: 0	inactive: 0	inactive: 0	inactive: 0	inactive: 0	inactive: 0	inactive: 0	inactive: 0	inactive: 0
O=Nc1c(-c2c(O)[nH]c3ccc(I)cc23)[nH]c2ccccc12 [5-Iodo-indirubin-3'-monoxime] (10 µM)	inactive: 0	inactive: 0	inactive: 0	inactive: 0	inactive: 0	inactive: 0	inactive: 0	inactive: 0	inactive: 0	inactive: 0
Nc1ccc(-c2cnc(N)c(-c3ccc(Cl)cc3)c2)cn1 (10 µM)	inactive: 0	inactive: 0	inactive: 0	inactive: 0	inactive: 0	inactive: 0	inactive: 0	inactive: 0	inactive: 0	inactive: 0
COc1cc(/C=C/C(=O)NCC(O)c2ccc(O)cc2)ccc1O (stereo not given) [N-Feruloyloctopamine] (2.5 µM)	inactive: 0	inactive: 0	inactive: 0	inactive: 0	inactive: 0	inactive: 0	inactive: 0	inactive: 0	inactive: 0	inactive: 0
S=C(SSC(=S)N1CCOCC1)N1CCOCC1 (10 µM)	inactive: 0	inactive: 0	inactive: 0	inactive: 0	inactive: 0	inactive: 0	inactive: 0	inactive: 0	inactive: 0	inactive: 0
Cc1ccccc1-n1c([C@H](C)Nc2nc(N)nc3nc[nH]c23)nc2cccc(C)c2c1=O [CAL-130 (Hydrochloride)] (10 µM)	inactive: 0	inactive: 0	inactive: 0	inactive: 0	inactive: 0	inactive: 0	inactive: 0	inactive: 0	inactive: 0	inactive: 0
CC#CC(=O)N1CC[C@@H](n2c(=O)n(-c3ccc(Oc4ccccc4)cc3)c3c(N)ncnc32)C1 [Tirabrutinib (hydrochloride)] (10 µM)	inactive: 0	inactive: 0	inactive: 0	inactive: 0	inactive: 0	inactive: 0	inactive: 0	inactive: 0	inactive: 0	inactive: 0
CCCCCCCCCCCCC/C=C/[C@@H](O)[C@@H](N)CO [D-erythro-Sphingosine] (2.5 µM)	inactive: 0	inactive: 0	inactive: 0	inactive: 0	inactive: 0	inactive: 0	inactive: 0	inactive: 0	inactive: 0	inactive: 0
OCCn1cc(-c2ccc3c(c2)CC/C3=N\O)c(-c2ccncc2)n1 (10 µM)	inactive: 0	inactive: 0	inactive: 0	inactive: 0	inactive: 0	inactive: 0	inactive: 0	inactive: 0	inactive: 0	inactive: 0

Taken from above:
Value for OCCn1cc(-c2ccc3c(c2)CC/C3=N\O)c(-c2ccncc2)n1 (10 µM) under kinase-Nluc reporter destabilization hit call (FYN): inactive: 0
Value for O=C(O)CCC(=O)Nc1ccc(Br)cn1 [Bikinin] (10 µM) under kinase-Nluc reporter destabilization hit call (GSK3A): inactive: 0
